Data as given in PubChem BioAssay AID485298 (National Center for Advancing Translational Sciences (NCATS), 2010).
About 740 (0.23%) of roughly 320,000 compounds were called active. Inconclusive results, whose numbers are uncertain, are shown with a selection of clear calls. Calls follow the shape of the dose curve; as a rule, active = well fitted activation curve with a large enough effect; inconclusive = small, poorly fitted or top-dose-only effect; inactive = no such curve, though single readings can be large or run the other way. Potencies beside an inconclusive call are fits to weak or partial responses and may not hold up.

Test: qHTS Assay for Small Molecule Inhibitors of Mitochondrial Division or Activators of Mitochondrial Fusion; also: nearly all actives have a fitted effect of over 45% in size
Details: S. cerevisiae fusion-defective mutant growth rescue, CellTiterGlo 48 h; series mostly up to 46.1 µM
Outline: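 Compounds are tested for their ability to restore growth of mitochondrial fusion-defective yeast strains at non-permissive 37C in YPEG medium over 48 hours. Viability is quantified by luciferase luminescence.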
Potency is read from the fitted curve at half-maximal effect.

| SMILES | Potency |
| --- | --- |
| O=C1C=C(c2cccc(Cl)c2)C[C@@H](c2ccc(Cl)cc2)C1 | inconclusive: 22.4 µM [activator, single point] |
| Cc1ccc(-n2c(=O)[nH]c3c(C(N)=O)nc(C(C)C)nc32)cc1 | inconclusive: 35.5 µM [activator, partial curve, poor fit] |
| Oc1cc(-c2ccccc2)c2ccccc2c1 | inconclusive: 31.6 µM [activator, single point] |
| COc1ccc(Nc2cc(C(=O)NCCCN3CCN(C)CC3)c3ccccc3n2)cc1OC | inconclusive: 3.55 µM [activator, partial curve] |
| O=C(O)COc1ccc(/C=N/O)cc1Br | inconclusive: 28.2 µM [activator, partial curve] |
| CCOc1ccc(OCC)c(NC(=O)CSc2nc3ccccc3c(=O)n2C)c1 | inactive |
| O=C1CN(C(=O)CSc2nc(-c3ccc(Cl)cc3)cs2)c2ccccc2N1 | inconclusive: 22.4 µM [activator, single point] |
| CCCCn1c(N)c(C(=S)NC(=O)CC(C)C)c(=O)n(C)c1=O | inconclusive: 15.8 µM [activator, single point] |
| CC(C)N(Cc1nc(-c2ccc(Cl)cc2)no1)C(=O)CN(C)S(=O)(=O)c1ccc(Cl)cc1 | inconclusive: 15.8 µM [activator, partial curve] |
| Cc1cc(C(=O)N2CCc3c([nH]c4ccccc34)C2c2cccc(Cl)c2)nn1C (centres undefined) | active: 5.01 µM |
| Cc1ccc(N(CC(O)Cn2nc(C)cc2C)S(=O)(=O)c2ccc3ccccc3c2)cc1 (centres undefined) | inconclusive: 35.5 µM [activator, single point] |
| CCOC(=O)c1cc2sccc2n1CCCN1C(=O)c2ccccc2C1=O | inconclusive: 12.6 µM [activator, partial curve] |
| Cc1nn2c(N3CCN(C)CC3)cc(C(C)(C)C)nc2c1-c1ccccc1 | inactive |
| O=S(=O)(c1ccc(Br)cc1)N1CCCC1c1nc2ccccc2s1 (centres undefined) | inconclusive: 15.8 µM [activator, partial curve] |
| CC(C)CC1Nc2ncnc(N3CCN(c4ccccn4)CC3)c2N(Cc2ccc(Br)cc2)C1=O (centres undefined) | inconclusive: 15.8 µM [activator, single point] |
| Cc1ccc(N2C(=O)/C(=C/c3cccnc3)SC2=S)cc1 | inactive |
| O=C(Nc1ccc(Cl)c(Cl)c1)C1CCCCC1 | inconclusive: 22.4 µM [activator, single point] |
| COc1cccc(OCCNc2cc(N3CCOCC3)ccc2[N+](=O)[O-])c1 | inactive |
| O=C(/C=C/c1ccc(Cl)cc1Cl)Nc1ccncc1 | inconclusive: 22.4 µM [activator, single point] |
| COc1cc(NC(C)=O)ccc1-c1cc2ccccc2oc1=O | inconclusive: 35.5 µM [activator, single point] |
| Cc1nn(-c2ccccc2)c2c1C(O)n1c(nc3ccccc31)S2 (centres undefined) | inconclusive: 3.55 µM [activator, partial curve] |
| COC(=O)c1cc(C#N)c(N2CCN(C)CC2)nc1C | inactive |

| SMILES | Potency |
| --- | --- |
| Cn1c(=O)c2ncn(CC(=O)N=Nc3c(O)[nH]c4ccccc34)c2n(C)c1=O | inconclusive: 14.1 µM [activator, single point] |
| S=c1[nH]nc(COc2ccccc2)n1/N=C/c1ccccn1 | inactive |
| CN(Cc1nccn1C)C(=O)c1cc(COc2cccc(C(F)(F)F)c2)on1 | inactive |
| COc1ccc2[nH]c(CN3CCN(CC(C)C)C(CCO)C3)c(C)c2c1 (centres undefined) | inconclusive: 25.1 µM [activator, partial curve] |
| Cc1cc(C)cc(NC(=O)Nc2c(Br)cnn2C)c1 | inconclusive: 5.62 µM [activator, single point] |
| Cc1ccsc1C(=O)N1CC=C(c2ccccc2)CC1 | inconclusive: 35.5 µM [activator, single point] |
| Cc1c(/C=N\NC(=O)C2COc3ccc(C(C)(C)C)cc3O2)c2ccccc2n1C (centres undefined) | inconclusive: 20 µM [activator, single point] |
| CCOc1ccc(C(C)NC(=O)c2cccnc2OCC)cc1OCC (centres undefined) | inconclusive: 15.8 µM [activator, partial curve] |
| O=[N+]([O-])c1ccc2c3n([n+]([O-])c2c1)CCN=C3c1ccc(Cl)cc1 | inconclusive: 12.6 µM [activator, partial curve] |
| CC(C)=C1C2CCC1C1C(=O)N(NC(=O)COc3ccc(Cl)c(C)c3)C(=O)C21 (centres undefined) | inconclusive: 17.8 µM [activator, single point] |
| COc1cccc(CNc2cccc3cccnc23)c1O | inconclusive: 7.08 µM [activator, partial curve] |
| CN(C)c1ccc(N=Nc2ccccc2C(=O)OCC(=O)NCC2CCCCC2)cc1 | inconclusive: 35.5 µM [activator, single point] |
| CCc1cc2c(=O)c(-c3cscn3)coc2c(CN(C)C)c1O | inactive |
| O=C(CSc1nc2ncc(Cl)cc2[nH]1)c1c[nH]c2ccccc12 | inactive |
| Cc1ccc(SCC2(O)CCN(S(=O)(=O)c3ccc(Cl)cc3)CC2)cc1 | inconclusive: 15.8 µM [activator, partial curve] |
| CCN(CC)CCNC(=O)c1ccc(NC(C)=O)cc1 | inconclusive: 18.4 µM [activator, single point] |
| N#Cc1c(-c2cccc(Br)c2)cc(-c2cccnc2)nc1N | inconclusive: 14.1 µM [activator, partial curve] |
| O=C(c1ccccc1)c1cccc(NC(=O)c2ccc(Br)o2)c1 | inconclusive: 15.8 µM [activator, single point] |
| Cc1ccccc1OCCNC(=O)c1ccc2ccccc2n1 | inconclusive: 22.4 µM [activator, single point] |
| CCCOc1ccccc1C1CC(=O)Nc2cc3c(cc21)OCO3 (centres undefined) | inconclusive: 10 µM [activator, single point] |
| O=C(COc1ccccc1-c1ccccc1)NCc1ccco1 | inconclusive: 10 µM [activator, partial curve] |
| COc1cc(CN(CC2CCCO2)C(=O)c2ccco2)cc(OC)c1OC (centres undefined) | inconclusive: 11.2 µM [activator, partial curve] |

Part of the list above, bar-delimited.
SMILES | Potency
CN(Cc1nccn1C)C(=O)c1cc(COc2cccc(C(F)(F)F)c2)on1 | inactive
COc1ccc2[nH]c(CN3CCN(CC(C)C)C(CCO)C3)c(C)c2c1 (centres undefined) | inconclusive: 25.1 µM [activator, partial curve]
Cc1cc(C)cc(NC(=O)Nc2c(Br)cnn2C)c1 | inconclusive: 5.62 µM [activator, single point]
